# Record: PubChem BioAssay AID1508597 (Cure First, 2020)
# Aim: 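Survival screen with siRNA in ovarian cancer cells derived from patients, with or without rucaparib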 (primary screen)
# System: human ovarian carcinoma lines grown from tumours: OCI-P5x (papillary serous) and OCI-C5x (clear cell)
# Reagents: siRNA pool against human genes, 1.25 pmol siRNA per well
# Duration: 72 h or 96 h, depending on the cell culture
# Conditions: rucaparib 20 µM (about IC30) or vehicle, present until read-out
# Rucaparib or vehicle: Rucaparib
# Cell line: OCI-C5x (clear cell)
# Detection: 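ATP luminescence measured at 72 or 96 h according to the culture, then normalised and expressed as percent viability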
# Scale: viability, normalised: higher = more viable cells remaining
# Hit rule: 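a well counts as a hit if its normalised viability is under 80 percent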
# Meaning of the calls: active = viability under 80%; inactive = viability 80% or more
# This is a random part of the about 2,100 reagents, under one of the conditions tested. 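Calls flag viability under 80% in either arm, not effects specific to rucaparib; the reference for percent is not stated.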 Not given: the 100% reference.
target gene,PubChem SID,technical replicate,"viability, normalised (%)",outcome
FAM131C (GeneID 348487),SID405526405,1,52.8,active
FAM131C (GeneID 348487),SID405526405,2,67.6,active
FAM131C (GeneID 348487),SID405526405,3,66.3,active
MAP4K5 (GeneID 11183),SID405527726,1,62.3,active
MAP4K5 (GeneID 11183),SID405527726,2,79.5,active
MAP4K5 (GeneID 11183),SID405527726,3,53.8,active
FOXP1 (GeneID 27086),SID405526798,1,33.3,active
FOXP1 (GeneID 27086),SID405526798,2,30.1,active
FOXP1 (GeneID 27086),SID405526798,3,31.4,active
CHD1 (GeneID 1105),SID405528099,1,65.5,active
CHD1 (GeneID 1105),SID405528099,2,63.8,active
CHD1 (GeneID 1105),SID405528099,3,76.3,active
EPHB2 (GeneID 2048),SID405527702,1,64.9,active
EPHB2 (GeneID 2048),SID405527702,2,57.5,active
EPHB2 (GeneID 2048),SID405527702,3,59.3,active
TOP3B (GeneID 8940),SID405528498,1,61.5,active
TOP3B (GeneID 8940),SID405528498,2,81.3,inactive
TOP3B (GeneID 8940),SID405528498,3,72,active
TNNI3K (GeneID 51086),SID405528551,1,63.6,active
TNNI3K (GeneID 51086),SID405528551,2,61.8,active
TNNI3K (GeneID 51086),SID405528551,3,67.7,active

Next part, starting with the last 3 of the part before.
target gene,PubChem SID,technical replicate,"viability, normalised (%)",outcome
TNNI3K (GeneID 51086),SID405528551,1,63.6,active
TNNI3K (GeneID 51086),SID405528551,2,61.8,active
TNNI3K (GeneID 51086),SID405528551,3,67.7,active
ETF1 (GeneID 2107),SID405526767,1,46.4,active
ETF1 (GeneID 2107),SID405526767,2,36.2,active
ETF1 (GeneID 2107),SID405526767,3,33.5,active
SPO11 (GeneID 23626),SID405528369,1,45.3,active
SPO11 (GeneID 23626),SID405528369,2,69.1,active
SPO11 (GeneID 23626),SID405528369,3,58.6,active
PHF3 (GeneID 23469),SID405527154,1,53.7,active
PHF3 (GeneID 23469),SID405527154,2,53,active
PHF3 (GeneID 23469),SID405527154,3,46.4,active
HMGB1 (GeneID 3146),SID405528334,1,67.5,active
HMGB1 (GeneID 3146),SID405528334,2,63.3,active
HMGB1 (GeneID 3146),SID405528334,3,49.7,active
RAX2 (GeneID 84839),SID405528434,1,54.8,active
RAX2 (GeneID 84839),SID405528434,2,61.5,active
RAX2 (GeneID 84839),SID405528434,3,52.4,active
DDX60 (GeneID 55601),SID405528205,1,57.6,active
DDX60 (GeneID 55601),SID405528205,2,50.7,active
DDX60 (GeneID 55601),SID405528205,3,43.5,active
